Assay [1] concerns the target IMPA1 fused to a luciferase fragment (split-LUC) (Arabidopsis thaliana) (UniProt Q96321). Description: split reporter; split luciferase complementation in N. benthamiana leaves, Agrobacterium infiltration, luciferase activity 48 h after infiltration.
Assay [2] has as its target IMPA2 fused to a luciferase fragment (split-LUC) (Arabidopsis thaliana) (UniProt F4JL11). The assay is described as above.

By UniProt entry, the sequences of proteins in these tests, tags left out.
UniProt Q96321: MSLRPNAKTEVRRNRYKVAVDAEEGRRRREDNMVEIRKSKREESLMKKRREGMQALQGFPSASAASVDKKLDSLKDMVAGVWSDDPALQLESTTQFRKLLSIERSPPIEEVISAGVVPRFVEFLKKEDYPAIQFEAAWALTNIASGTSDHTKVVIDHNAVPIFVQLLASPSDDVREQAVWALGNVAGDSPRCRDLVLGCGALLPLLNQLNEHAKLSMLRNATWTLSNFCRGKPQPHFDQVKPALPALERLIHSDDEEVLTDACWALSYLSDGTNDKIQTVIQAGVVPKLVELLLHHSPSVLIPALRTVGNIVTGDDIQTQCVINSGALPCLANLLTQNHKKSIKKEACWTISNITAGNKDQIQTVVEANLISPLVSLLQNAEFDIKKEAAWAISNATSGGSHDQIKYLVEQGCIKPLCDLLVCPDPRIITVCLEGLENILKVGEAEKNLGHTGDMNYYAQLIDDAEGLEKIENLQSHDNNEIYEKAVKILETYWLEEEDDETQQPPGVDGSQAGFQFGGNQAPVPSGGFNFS
UniProt F4JL11: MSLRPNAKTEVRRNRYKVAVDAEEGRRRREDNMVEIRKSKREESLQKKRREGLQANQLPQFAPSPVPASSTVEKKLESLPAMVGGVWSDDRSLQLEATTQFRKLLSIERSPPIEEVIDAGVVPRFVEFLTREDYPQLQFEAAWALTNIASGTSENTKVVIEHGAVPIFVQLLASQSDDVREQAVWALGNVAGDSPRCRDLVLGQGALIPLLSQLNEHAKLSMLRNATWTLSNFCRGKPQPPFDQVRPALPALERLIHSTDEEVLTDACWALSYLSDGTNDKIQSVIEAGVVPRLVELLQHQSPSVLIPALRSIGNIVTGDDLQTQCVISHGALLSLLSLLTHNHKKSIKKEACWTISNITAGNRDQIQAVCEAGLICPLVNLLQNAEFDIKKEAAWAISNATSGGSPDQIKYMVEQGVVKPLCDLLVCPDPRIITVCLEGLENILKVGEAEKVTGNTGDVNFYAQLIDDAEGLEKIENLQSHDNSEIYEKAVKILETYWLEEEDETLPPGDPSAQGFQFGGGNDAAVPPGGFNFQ

No constants are given. Whether binding was seen depends on the method and setting. In cells and extracts the contact can be indirect. Some entries that bind do so weakly or less than the wild type. Tags and fused reporters may be left off the sequences shown.

With “SWO1 fused to a luciferase fragment (split-LUC) (from UniProt F4JP43 1-2037)”, the binding result in assay [1] and in assay [2] was “binds” each time.

B1: SWO1-C (aa 1001-2038) fused to a luciferase fragment (split-LUC) (domain or fragment, UniProt F4JP43 1001-2037)
chain: CVVRAQKSLVATPETPLQSRPGKTETPSAGHTNSKESSGTNPMIPLSSPLWSLSTSVDTLQSSSVQRGSAATHQPLLSASHAHQTPPTQNIVGHNTPWMSPLPFRNAWLASQQTSGFDVGSRFPVYPITDPVKLTPMKESSMTLSGAKHVQSGTSSNVSKVTPTLEPTSTVVAPAQHSTRVKSRKRKKMPVSVESGPNILNSLKQTELAASPLVPFTPTPANLGYNAGTLPSVVSMTAVPMDLVSTFPGKKIKSSFPSPIFGGNLVREVKQRSVLSEDTIEKLKEAKMHAEDASALATAAVSHSEYVWKQIEQQSHAGLQPETQDRLASAAVAIAAAAAVAKAAAAAANVAANAALQAKLMAEEASLPNASDQGLPKSYDSILPGQGTPASILKGEGAVVNSSSVLIAAREASKKRVEAATAATKRAENMDSIVKAAELASEAVSQAGILVSMGHPPLLNKLVEAGPSNYWRQAQESQEVQPCKTVVLEKETVSTSEGTFAGPKIVQTEFGGSVNTADGVSGPVPATGKLKGQEGDKYADLAKNNDVVFEPEVGSKFSIDAQQTIKATKNEDIKEGSNVEVFKEEPGLRTAWYSANVLSLEDDKAYVLFSDLSVEQGTDKLKEWVALKGEGDQAPKIRPARSVTALPYEGTRKRRRAALGDHIWKIGDRVDSWVHDSWLEGVITEKNKKDENTVTVHFPAEEETLTIKAWNLRPSLVWKDGKWIECSSSGETISSSHEGDTPKEKRPRLGTPALVAEVKDTSMKIVDDPDLGKPPQTGVLNLGVSENTFNIGKSTREENKPDPLRMKRTGLQKQGSKVIFGVPKPGKKRKFMDVSKHYVSEASTKTQERKEPVKPVRSIVPQNSGIGSWKMPSKTISIEKQTTISRPKTFKPAPKPKEKPGATARIIPRKDSRNTTASDMESDESAENRGPGSGVSFKGTVEEQTTSSSHDTGSKNSSSLSTNKGRVAPTAGRLAKIEEDKALAENSSKTSEGMEPRRSIRRIQPTSRLLEGLQTSMMTSKIPSVSHSKSHLSQSKK
On to B1, for which the binding result in assay [1] and in assay [2] was “binds” each time.

The record behind these values is paper PMC10442049.
